The record followed here is publication PMC4836274.

By UniProt entry, the sequences of proteins in these tests, tags left out. Where a name states a change or a piece, a line headed by the entry shows the natural chain unless it says otherwise. Residues count along the entry.
UniProt Q92673: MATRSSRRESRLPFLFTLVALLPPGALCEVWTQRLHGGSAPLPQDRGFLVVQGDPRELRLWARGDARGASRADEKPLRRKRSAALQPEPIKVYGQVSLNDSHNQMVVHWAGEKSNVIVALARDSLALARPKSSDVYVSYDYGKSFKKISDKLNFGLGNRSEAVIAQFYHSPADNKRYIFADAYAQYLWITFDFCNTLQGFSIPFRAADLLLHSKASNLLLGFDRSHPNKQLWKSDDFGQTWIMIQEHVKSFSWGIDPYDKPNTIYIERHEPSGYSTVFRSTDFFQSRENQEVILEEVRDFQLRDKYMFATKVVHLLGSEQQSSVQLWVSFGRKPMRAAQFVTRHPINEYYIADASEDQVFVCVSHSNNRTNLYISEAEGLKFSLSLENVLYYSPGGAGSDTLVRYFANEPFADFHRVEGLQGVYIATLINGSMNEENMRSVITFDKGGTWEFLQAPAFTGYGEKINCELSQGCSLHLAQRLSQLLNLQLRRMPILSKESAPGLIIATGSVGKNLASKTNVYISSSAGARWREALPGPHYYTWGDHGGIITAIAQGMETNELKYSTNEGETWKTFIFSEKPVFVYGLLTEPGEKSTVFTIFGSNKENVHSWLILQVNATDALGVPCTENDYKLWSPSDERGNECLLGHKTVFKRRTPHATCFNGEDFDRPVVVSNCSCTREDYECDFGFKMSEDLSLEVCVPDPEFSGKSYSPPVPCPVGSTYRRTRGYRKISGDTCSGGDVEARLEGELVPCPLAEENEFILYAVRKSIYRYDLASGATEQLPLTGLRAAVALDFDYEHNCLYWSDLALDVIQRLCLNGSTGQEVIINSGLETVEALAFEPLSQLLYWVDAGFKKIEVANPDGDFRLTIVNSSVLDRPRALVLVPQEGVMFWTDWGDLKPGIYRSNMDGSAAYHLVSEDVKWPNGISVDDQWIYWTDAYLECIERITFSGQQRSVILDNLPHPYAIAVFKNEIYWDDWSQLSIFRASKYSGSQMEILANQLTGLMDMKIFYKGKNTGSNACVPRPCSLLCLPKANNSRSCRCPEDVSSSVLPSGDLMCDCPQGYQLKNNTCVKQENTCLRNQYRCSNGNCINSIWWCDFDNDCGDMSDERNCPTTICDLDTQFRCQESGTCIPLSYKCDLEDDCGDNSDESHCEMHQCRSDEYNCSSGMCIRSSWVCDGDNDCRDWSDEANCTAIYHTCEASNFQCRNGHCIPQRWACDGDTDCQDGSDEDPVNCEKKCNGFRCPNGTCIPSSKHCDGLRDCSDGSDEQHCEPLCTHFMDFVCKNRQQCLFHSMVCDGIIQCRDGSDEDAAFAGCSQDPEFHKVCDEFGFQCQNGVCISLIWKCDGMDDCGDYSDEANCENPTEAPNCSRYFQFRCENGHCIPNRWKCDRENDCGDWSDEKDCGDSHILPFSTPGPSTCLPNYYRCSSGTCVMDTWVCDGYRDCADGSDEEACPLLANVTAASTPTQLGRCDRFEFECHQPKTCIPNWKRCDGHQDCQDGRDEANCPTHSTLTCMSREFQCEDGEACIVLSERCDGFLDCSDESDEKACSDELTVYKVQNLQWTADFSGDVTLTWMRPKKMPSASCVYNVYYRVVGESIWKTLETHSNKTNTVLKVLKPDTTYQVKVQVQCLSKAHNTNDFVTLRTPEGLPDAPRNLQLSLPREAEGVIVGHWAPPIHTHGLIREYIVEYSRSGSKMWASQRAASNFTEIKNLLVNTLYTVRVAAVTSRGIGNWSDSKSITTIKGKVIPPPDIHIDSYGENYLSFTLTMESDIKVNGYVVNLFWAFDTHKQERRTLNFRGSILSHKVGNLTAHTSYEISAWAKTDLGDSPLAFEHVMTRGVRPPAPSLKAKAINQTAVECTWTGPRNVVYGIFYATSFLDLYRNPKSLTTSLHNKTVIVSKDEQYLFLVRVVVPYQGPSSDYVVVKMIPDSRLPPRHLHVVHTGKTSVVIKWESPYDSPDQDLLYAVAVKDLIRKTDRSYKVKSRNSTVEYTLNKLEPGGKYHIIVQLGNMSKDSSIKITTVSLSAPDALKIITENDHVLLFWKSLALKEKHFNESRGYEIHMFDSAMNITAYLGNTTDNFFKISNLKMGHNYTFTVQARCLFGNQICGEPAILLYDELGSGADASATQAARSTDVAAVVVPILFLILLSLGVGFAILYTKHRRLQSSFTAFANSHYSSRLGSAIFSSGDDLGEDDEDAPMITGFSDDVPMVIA
full-length sorLA in transfected HEK293 cells: residues 82-2214 of Q92673
soluble sorLA (entire luminal part of sorLA): residues 82-2137 of Q92673

Test [1] deals with soluble sorLA (entire luminal part of sorLA) (human) (UniProt Q92673). Description: SPR; Biacore 3000, CM5 chip; soluble sorLA (entire luminal part) immobilised at 66 to 86 fmol/mm^2; 25°C; 10 mM HEPES, 150 mM NaCl, 1.5 mM CaCl2, 1 mM EGTA, 0.005% Tween 20, pH 7.4; Langmuir 1:1 model, global fitting; both purified. (SPR reads the build-up and loss of mass on a sensor chip optically.)

The target is the same in test [2]. Description: SPR; inhibition by RAP of ligand binding to immobilised sorLA; data not shown; both purified.
Test [3] shares this target. Nature of the test: SPR; immobilised sorLA preincubated with buffer or with 5 μM inhibitor (sorLA propeptide or RAP) before the ligand was added; both purified.
Test [4] deals with full-length sorLA in transfected HEK293 cells (human) (UniProt Q92673). Description: cross-linking + co-IP; HEK293 double transfectants cross-linked with DSP, lysed in 1% Triton X-100, precipitated with anti-sorLA or anti-Myc, SDS-PAGE with and without DTT, immunoblot. A general note: In western blotting, separated proteins are transferred to a membrane and probed.

These are yes or no findings as the source states them, for the method shown. For some of these results: Binding seen in cells or lysates may run through a third protein. Some results given as binding are weak or reduced against the parent protein; the word gives no strength. For some of these results: Tags and fused reporters may be left off the sequences shown.

B1: ciliary neurotrophic factor (ligand, UniProt P26441 1-200)
chain: MAFTEHSPLTPHRRDLCSRSIWLARKIRSDLTALTESYVKHQGLNKNINLDSADGMPVASTDQWSELTEAERLQENLQAYRTFHVLLARLLEDQQVHFTPTEGDFHQAIHTLLLQVAAFAYQIEELMILLEYKIPRNEADGMPINVGDGGLFEKKLWGLKVLQELSQWTVRSIHDLRFISSHQTGIPARGSHYIANNKKM
On to B1, for which the binding result in test [1] is on record as “no binding”.

B2: cardiotrophin-like cytokine:cytokine-like factor-1 heterodimer (complex, UniProt Q9UBD9 28-225; O75462 38-422)
chain 1: LNRTGDPGPGPSIQKTYDLTRYLEHQLRSLAGTYLNYLGPPFNEPDFNPPRLGAETLPRATVDLEVWRSLNDKLRLTQNYEAYSHLLCYLRGLNRQAATAELRRSLAHFCTSLQGLLGSIAGVMAALGYPLPQPLPGTEPTWTPGPAHSDFLQKMDDFWLLKELQTWLWRSAKDFNRLKKKMQPPAAAVTLHLGAHGF
chain 2: AHTAVISPQDPTLLIGSSLLATCSVHGDPPGATAEGLYWTLNGRRLPPELSRVLNASTLALALANLNGSRQRSGDNLVCHARDGSILAGSCLYVGLPPEKPVNISCWSKNMKDLTCRWTPGAHGETFLHTNYSLKYKLRWYGQDNTCEEYHTVGPHSCHIPKDLALFTPYEIWVEATNRLGSARSDVLTLDILDVVTTDPPPDVHVSRVGGLEDQLSVRWVSPPALKDFLFQAKYQIRYRVEDSVDWKVVDDVSNQTSCRLAGLKPGTVYFVQVRCNPFGIYGSKKAGIWSEWSHPTAASTPRSERPGPGGGACEPRGGEPSSGPVRRELKQFLGWLKKHAYCSNLSFRLYDQWRAWMQKSHKTRNQDEGILPSGRRGTARGPAR
B2: the binding result in test [2] and in test [3] was “binds” each time.

B3: CLF-1–His (His-tagged cytokine-like factor-1) (protein, UniProt O75462 38-422)
chain: AHTAVISPQDPTLLIGSSLLATCSVHGDPPGATAEGLYWTLNGRRLPPELSRVLNASTLALALANLNGSRQRSGDNLVCHARDGSILAGSCLYVGLPPEKPVNISCWSKNMKDLTCRWTPGAHGETFLHTNYSLKYKLRWYGQDNTCEEYHTVGPHSCHIPKDLALFTPYEIWVEATNRLGSARSDVLTLDILDVVTTDPPPDVHVSRVGGLEDQLSVRWVSPPALKDFLFQAKYQIRYRVEDSVDWKVVDDVSNQTSCRLAGLKPGTVYFVQVRCNPFGIYGSKKAGIWSEWSHPTAASTPRSERPGPGGGACEPRGGEPSSGPVRRELKQFLGWLKKHAYCSNLSFRLYDQWRAWMQKSHKTRNQDEGILPSGRRGTARGPAR
Regarding B3, the binding result in test [2] and in test [3] was “binds” throughout.

B4: cardiotrophin-like cytokine (ligand, UniProt Q9UBD9 28-225)
chain: LNRTGDPGPGPSIQKTYDLTRYLEHQLRSLAGTYLNYLGPPFNEPDFNPPRLGAETLPRATVDLEVWRSLNDKLRLTQNYEAYSHLLCYLRGLNRQAATAELRRSLAHFCTSLQGLLGSIAGVMAALGYPLPQPLPGTEPTWTPGPAHSDFLQKMDDFWLLKELQTWLWRSAKDFNRLKKKMQPPAAAVTLHLGAHGF
Turning to B4, in test [1], the binding result is on record as “no binding (tested: 250 nM)”.

B5: CNTFRα-Myc (receptor, UniProt P26992 23-342)
chain: QRHSPQEAPHVQYERLGSDVTLPCGTANWDAAVTWRVNGTDLAPDLLNGSQLVLHGLELGHSGLYACFHRDSWHLRHQVLLHVGLPPREPVLSCRSNTYPKGFYCSWHLPTPTYIPNTFNVTVLHGSKIMVCEKDPALKNRCHIRYMHLFSTIKYKVSISVSNALGHNATAITFDEFTIVKPDPPENVVARPVPSNPRRLEVTWQTPSTWPDPESFPLKFFLRYRPLILDQWQHVELSDGTAHTITDAYAGKEYIIQVAAKDNEIGTWSDWSVAAHATPWTEEPRHLTTEAQAAETTTSTTSSLAPPPTTKICDPGELGS
Take B5: the binding result in test [4] is on record as “binds”.
